Some of the results follow. Most entries show no effect beyond the scatter of the controls.
Compound: CN[C@@H]1C[C@H]2O[C@@](C)([C@@H]1OC)n1c3ccccc3c3c4c(c5c6ccccc6n2c5c31)C(=O)NC4 [staurosporine]
Test: log2 fold change of tryptic peptide abundance, ligand vs vehicle (limited proteolysis) (log2 ratio); higher = more trypsin-susceptible (destabilized)
Settings: ligand concentration: 20 uM; sample: mouse liver crude lysate; replicate design: treated separately

Sequences of proteins named here, by UniProt entry; tags and fusion partners are left off. A change or cut given only in a name is not applied to a line headed by its entry.
UniProt Q4VBE8: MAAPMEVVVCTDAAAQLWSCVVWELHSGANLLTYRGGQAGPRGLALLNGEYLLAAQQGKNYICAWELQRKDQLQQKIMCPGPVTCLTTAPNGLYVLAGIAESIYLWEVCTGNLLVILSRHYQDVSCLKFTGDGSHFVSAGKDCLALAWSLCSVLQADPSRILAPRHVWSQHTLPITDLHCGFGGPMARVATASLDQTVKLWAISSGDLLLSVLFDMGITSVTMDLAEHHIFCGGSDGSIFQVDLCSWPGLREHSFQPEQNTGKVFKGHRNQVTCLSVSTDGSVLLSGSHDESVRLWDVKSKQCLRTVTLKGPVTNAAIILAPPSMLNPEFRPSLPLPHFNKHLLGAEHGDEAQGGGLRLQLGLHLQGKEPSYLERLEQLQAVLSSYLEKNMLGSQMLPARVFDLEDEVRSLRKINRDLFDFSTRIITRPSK
UniProt Q5DU09: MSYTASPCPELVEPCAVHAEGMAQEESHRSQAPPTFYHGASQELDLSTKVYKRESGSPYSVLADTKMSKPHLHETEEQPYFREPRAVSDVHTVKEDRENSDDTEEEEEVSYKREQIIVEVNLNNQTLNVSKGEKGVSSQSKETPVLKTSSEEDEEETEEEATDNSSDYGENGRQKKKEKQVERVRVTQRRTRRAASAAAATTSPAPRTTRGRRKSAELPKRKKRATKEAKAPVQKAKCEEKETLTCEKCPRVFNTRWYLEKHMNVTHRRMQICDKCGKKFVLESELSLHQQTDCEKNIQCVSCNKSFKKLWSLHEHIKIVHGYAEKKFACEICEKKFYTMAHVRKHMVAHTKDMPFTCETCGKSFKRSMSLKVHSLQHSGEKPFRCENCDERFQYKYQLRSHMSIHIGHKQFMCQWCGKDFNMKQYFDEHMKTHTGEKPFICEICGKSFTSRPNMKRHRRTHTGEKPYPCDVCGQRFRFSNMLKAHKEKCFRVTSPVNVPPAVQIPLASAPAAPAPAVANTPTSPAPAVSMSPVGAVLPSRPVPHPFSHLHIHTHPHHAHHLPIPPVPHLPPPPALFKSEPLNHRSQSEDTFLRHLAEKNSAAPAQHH
UniProt Q50H33: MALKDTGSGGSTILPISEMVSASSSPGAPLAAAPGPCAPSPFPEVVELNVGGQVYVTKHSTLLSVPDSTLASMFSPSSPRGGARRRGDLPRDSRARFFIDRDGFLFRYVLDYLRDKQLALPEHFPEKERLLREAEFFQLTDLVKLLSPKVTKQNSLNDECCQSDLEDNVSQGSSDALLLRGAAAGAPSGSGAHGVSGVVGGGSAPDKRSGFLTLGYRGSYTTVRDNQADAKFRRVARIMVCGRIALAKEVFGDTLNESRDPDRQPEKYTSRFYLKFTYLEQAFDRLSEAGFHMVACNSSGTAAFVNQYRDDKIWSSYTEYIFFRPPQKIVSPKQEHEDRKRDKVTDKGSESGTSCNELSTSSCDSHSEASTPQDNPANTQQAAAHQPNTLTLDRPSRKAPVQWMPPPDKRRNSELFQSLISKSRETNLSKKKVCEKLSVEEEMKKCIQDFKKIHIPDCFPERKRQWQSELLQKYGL
UniProt Q3UHF3: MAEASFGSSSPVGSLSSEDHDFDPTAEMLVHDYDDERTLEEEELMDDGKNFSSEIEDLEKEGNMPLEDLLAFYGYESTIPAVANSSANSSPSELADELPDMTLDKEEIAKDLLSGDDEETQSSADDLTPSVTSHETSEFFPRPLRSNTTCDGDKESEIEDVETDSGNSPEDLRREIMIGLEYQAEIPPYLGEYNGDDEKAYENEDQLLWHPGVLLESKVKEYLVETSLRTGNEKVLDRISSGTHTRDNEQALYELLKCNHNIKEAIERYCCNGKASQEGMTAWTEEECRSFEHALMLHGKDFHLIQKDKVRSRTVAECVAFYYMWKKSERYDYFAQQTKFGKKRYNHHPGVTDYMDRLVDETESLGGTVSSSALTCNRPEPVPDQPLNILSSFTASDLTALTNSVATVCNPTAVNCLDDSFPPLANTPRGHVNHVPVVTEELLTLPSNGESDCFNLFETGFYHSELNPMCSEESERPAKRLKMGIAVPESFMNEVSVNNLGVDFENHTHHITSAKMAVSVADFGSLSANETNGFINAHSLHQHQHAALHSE
UniProt Q3UB74: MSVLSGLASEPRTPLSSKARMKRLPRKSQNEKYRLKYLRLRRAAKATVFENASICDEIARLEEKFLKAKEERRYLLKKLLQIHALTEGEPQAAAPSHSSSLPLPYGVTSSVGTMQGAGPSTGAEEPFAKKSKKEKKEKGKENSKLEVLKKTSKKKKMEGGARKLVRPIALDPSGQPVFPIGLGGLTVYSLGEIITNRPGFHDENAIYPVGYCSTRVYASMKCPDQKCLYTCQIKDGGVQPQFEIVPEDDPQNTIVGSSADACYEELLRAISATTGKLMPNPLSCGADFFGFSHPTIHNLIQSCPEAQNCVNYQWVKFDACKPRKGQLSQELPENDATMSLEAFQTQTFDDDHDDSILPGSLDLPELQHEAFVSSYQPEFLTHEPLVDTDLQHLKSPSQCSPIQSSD
UniProt Q3U564: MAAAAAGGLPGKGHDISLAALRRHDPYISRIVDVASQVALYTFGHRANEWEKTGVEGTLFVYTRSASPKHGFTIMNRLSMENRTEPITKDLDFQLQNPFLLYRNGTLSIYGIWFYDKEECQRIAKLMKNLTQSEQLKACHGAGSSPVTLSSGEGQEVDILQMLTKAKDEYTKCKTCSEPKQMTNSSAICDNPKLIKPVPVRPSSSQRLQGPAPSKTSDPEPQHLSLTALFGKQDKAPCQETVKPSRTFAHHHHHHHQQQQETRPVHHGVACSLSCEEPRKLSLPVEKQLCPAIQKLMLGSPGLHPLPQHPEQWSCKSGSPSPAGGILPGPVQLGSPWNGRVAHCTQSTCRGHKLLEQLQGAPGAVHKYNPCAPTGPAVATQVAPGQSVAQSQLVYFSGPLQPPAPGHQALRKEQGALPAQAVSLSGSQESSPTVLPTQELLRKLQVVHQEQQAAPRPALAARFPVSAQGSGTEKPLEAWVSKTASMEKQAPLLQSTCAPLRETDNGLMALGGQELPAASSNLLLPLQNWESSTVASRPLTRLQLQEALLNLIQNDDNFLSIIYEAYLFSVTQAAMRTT
UniProt Q3UZ01: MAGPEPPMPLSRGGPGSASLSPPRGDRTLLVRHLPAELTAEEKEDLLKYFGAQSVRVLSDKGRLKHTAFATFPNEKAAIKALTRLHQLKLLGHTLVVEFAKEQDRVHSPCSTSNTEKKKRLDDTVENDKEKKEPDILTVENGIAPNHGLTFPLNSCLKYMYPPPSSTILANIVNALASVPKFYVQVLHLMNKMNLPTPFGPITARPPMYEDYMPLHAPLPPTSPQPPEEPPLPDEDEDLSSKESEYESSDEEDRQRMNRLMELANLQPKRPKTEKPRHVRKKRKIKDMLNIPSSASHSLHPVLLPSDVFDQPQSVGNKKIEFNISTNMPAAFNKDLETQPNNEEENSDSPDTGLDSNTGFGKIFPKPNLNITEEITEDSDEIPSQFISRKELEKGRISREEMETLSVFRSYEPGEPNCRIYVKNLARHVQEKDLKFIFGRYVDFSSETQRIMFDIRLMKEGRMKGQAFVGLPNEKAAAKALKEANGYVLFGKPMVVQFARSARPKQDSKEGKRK
UniProt Q569L8: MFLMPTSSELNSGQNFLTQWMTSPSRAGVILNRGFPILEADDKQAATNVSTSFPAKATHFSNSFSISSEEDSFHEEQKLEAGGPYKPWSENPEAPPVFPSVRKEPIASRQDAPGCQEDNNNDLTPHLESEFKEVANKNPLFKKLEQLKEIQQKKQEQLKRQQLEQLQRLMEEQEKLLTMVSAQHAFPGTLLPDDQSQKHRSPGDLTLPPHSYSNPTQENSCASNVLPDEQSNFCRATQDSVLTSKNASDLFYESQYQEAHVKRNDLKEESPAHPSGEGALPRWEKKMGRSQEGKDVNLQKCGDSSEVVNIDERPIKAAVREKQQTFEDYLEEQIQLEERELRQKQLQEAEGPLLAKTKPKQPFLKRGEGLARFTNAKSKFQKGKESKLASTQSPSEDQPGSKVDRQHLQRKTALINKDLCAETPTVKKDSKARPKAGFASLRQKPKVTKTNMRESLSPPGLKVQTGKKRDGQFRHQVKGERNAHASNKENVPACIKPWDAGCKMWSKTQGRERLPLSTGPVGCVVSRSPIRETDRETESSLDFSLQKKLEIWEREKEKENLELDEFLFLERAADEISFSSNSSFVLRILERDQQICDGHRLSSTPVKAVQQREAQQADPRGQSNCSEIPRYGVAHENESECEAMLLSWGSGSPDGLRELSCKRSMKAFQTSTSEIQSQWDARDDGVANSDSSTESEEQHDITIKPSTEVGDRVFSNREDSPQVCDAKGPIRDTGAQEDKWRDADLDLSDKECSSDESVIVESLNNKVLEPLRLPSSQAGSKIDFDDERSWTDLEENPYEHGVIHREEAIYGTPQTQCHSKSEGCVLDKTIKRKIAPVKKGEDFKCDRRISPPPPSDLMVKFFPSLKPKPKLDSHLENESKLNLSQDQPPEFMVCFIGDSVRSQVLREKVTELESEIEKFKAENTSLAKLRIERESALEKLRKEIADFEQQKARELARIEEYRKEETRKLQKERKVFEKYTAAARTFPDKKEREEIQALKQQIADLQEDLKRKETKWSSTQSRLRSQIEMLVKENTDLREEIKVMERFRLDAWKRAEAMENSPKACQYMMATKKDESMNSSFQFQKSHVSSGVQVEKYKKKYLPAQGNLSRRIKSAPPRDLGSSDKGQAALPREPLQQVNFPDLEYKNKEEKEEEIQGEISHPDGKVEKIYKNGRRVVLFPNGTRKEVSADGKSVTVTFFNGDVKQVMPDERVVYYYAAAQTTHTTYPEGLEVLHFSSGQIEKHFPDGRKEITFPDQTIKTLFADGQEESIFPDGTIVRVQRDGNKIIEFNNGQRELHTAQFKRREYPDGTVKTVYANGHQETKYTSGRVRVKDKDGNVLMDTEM
UniProt Q3UZP4: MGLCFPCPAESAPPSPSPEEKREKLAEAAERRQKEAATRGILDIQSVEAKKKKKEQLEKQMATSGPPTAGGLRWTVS
UniProt Q3UQS8: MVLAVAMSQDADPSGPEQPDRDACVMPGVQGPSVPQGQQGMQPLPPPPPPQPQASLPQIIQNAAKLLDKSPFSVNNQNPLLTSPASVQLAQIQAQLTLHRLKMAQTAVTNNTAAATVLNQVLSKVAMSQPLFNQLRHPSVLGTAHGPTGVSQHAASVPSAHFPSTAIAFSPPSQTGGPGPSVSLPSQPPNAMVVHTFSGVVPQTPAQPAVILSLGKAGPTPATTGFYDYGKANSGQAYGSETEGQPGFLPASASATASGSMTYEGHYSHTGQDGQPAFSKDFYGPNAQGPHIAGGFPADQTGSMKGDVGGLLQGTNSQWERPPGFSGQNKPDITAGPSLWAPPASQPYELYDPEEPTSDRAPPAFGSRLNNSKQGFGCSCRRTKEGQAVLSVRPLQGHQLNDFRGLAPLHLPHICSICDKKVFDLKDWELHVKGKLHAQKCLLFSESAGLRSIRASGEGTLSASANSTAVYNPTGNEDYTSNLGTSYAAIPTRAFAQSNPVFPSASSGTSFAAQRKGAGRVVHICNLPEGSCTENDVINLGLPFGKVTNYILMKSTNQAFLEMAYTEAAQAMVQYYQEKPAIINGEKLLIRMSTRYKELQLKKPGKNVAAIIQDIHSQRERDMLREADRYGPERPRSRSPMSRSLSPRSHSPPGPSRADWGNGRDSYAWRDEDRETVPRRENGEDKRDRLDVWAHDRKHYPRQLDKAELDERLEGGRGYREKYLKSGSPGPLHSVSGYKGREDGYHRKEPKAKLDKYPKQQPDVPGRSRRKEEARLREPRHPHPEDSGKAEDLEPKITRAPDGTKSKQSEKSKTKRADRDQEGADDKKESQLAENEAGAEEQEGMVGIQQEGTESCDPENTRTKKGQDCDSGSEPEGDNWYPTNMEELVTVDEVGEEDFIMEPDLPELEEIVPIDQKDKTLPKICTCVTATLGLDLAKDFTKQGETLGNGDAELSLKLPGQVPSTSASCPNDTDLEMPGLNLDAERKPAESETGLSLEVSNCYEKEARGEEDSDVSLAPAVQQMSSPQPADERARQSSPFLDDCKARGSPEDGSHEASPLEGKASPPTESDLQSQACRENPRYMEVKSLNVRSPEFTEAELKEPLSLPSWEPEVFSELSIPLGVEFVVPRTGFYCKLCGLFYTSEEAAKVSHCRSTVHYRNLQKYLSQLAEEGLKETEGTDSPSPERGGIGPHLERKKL
UniProt Q3UR97: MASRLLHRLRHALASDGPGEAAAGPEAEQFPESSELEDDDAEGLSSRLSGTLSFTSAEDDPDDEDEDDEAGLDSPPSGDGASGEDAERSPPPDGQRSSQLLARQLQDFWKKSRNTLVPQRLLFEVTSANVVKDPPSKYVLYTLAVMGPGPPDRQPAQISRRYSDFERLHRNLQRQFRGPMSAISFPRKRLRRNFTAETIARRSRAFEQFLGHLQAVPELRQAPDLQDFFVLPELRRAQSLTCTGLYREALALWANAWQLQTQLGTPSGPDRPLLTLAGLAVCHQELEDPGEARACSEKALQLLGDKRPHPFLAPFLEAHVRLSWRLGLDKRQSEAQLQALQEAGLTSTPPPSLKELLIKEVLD

**Q.** With “UniProt Q5DU05 (peptide sequence: TEQQAALQR, peptide start residue: 677)” as the target, how does the log2 fold change read?
**A.** Its log2 fold change is -0.676.

**Q.** For “UniProt Q4VBE8 (peptide sequence: DLFDFSTR, peptide start residue: 417)”, which log2 fold change is on record?
**A.** Its log2 fold change is -0.118.

**Q.** With “UniProt Q5DU09 (peptide sequence: ETLTCEKCPR, peptide start residue: 242)” as the target, how does the log2 fold change read?
**A.** The log2 fold change was -0.758.

**Q.** How did the log2 fold change turn out when “UniProt Q50H33 (peptide sequence: FFIDRDGFLFR, peptide start residue: 97)” was run?
**A.** Its log2 fold change is 0.281.

**Q.** For “UniProt Q3UHX2 (peptide sequence: VTQLDLDGPKELSR, peptide start residue: 96)”, which log2 fold change is on record?
**A.** The log2 fold change was -0.292.

**Q.** “UniProt Q3U6U5 (peptide sequence: LGGPQLGWLYK, peptide start residue: 460)” was tested. Which log2 fold change did it give?
**A.** The log2 fold change was -0.19.

**Q.** How did the log2 fold change turn out when “UniProt Q4KMM3 (peptide sequence: DSLNSIALK, peptide start residue: 106)” was run?
**A.** The log2 fold change was 0.18.

**Q.** With “UniProt Q569Z5 (peptide sequence: LQNSYQPTNK, peptide start residue: 1017)” as the target, how does the log2 fold change read?
**A.** The log2 fold change was 0.136.

**Q.** Which log2 fold change does the source give for “UniProt Q3UHF3 (peptide sequence: VKEYLVETSLR, peptide start residue: 219)” here?
**A.** Its log2 fold change is 0.406.

**Q.** For “UniProt Q3ZT31 (peptide sequence: QALSSIQNAPKPDKK, peptide start residue: 460)”, which log2 fold change is on record?
**A.** The log2 fold change was -0.578.

**Q.** With “UniProt Q571K4 (peptide sequence: TLVHSSSDGHIDPQHTAGK, peptide start residue: 97)” as the target, how does the log2 fold change read?
**A.** Its log2 fold change is 0.556.

**Q.** For “UniProt Q3UMT1 (peptide sequence: ALNGVSSPVSSNPK, peptide start residue: 397)”, which log2 fold change is on record?
**A.** Its log2 fold change is 0.177.

**Q.** Which log2 fold change does the source give for “UniProt Q3UB74 (peptide sequence: FDACKPR, peptide start residue: 317)” here?
**A.** The log2 fold change was -0.115.

**Q.** How did the log2 fold change turn out when “UniProt Q3U564 (peptide sequence: KLSLPVEK, peptide start residue: 280)” was run?
**A.** Its log2 fold change is 0.313.

**Q.** For “UniProt Q3UG20 (peptide sequence: ETTENISGSCK, peptide start residue: 806)”, which log2 fold change is on record?
**A.** Its log2 fold change is 0.814.

**Q.** How did the log2 fold change turn out when “UniProt Q3UR70 (peptide sequence: EKFQVMYR, peptide start residue: 343)” was run?
**A.** The log2 fold change was -0.287.

**Q.** With “UniProt Q3UIJ9 (peptide sequence: STSTVTLFSGGGAK, peptide start residue: 4)” as the target, how does the log2 fold change read?
**A.** Its log2 fold change is -0.212.

**Q.** With “UniProt Q3UDP0 (peptide sequence: TAHDSNILHIDKLPNR, peptide start residue: 320)” as the target, how does the log2 fold change read?
**A.** Its log2 fold change is -0.179.

**Q.** “UniProt Q3UZ39 (peptide sequence: DSLAEVEEKYK, peptide start residue: 106)” was tested. Which log2 fold change did it give?
**A.** The log2 fold change was 0.595.

**Q.** How did the log2 fold change turn out when “UniProt Q3UZ01 (peptide sequence: LDDTVENDKEKK, peptide start residue: 121)” was run?
**A.** The log2 fold change was 0.605.

**Q.** With “UniProt Q3UDR8 (peptide sequence: QVADQMWQAGKR, peptide start residue: 89)” as the target, how does the log2 fold change read?
**A.** The log2 fold change was -0.0549.

**Q.** For “UniProt Q569L8 (peptide sequence: EREEIQALK, peptide start residue: 991)”, which log2 fold change is on record?
**A.** Its log2 fold change is -0.147.

**Q.** With “UniProt Q3UZP4 (peptide sequence: GILDIQSVEAK, peptide start residue: 40)” as the target, how does the log2 fold change read?
**A.** The log2 fold change was -0.135.

**Q.** “UniProt Q3V3R4 (peptide sequence: FSIAILGHYNR, peptide start residue: 305)” was tested. Which log2 fold change did it give?
**A.** Its log2 fold change is 0.357.

**Q.** With “UniProt Q3UGS4 (peptide sequence: TFKPIDLSDLK, peptide start residue: 77)” as the target, how does the log2 fold change read?
**A.** Its log2 fold change is 0.191.

**Q.** Which log2 fold change does the source give for “UniProt Q3UHX0 (peptide sequence: TLKENIAFNTGGGHHSSLK, peptide start residue: 565)” here?
**A.** The log2 fold change was -0.692.

**Q.** With “UniProt Q4VBF2 (peptide sequence: REDPVFTPHECFR, peptide start residue: 153)” as the target, how does the log2 fold change read?
**A.** Its log2 fold change is 0.388.

**Q.** How did the log2 fold change turn out when “UniProt Q571H0 (peptide sequence: TKDLHVLMDHLPNTLR, peptide start residue: 1332)” was run?
**A.** Its log2 fold change is -0.433.

**Q.** With “UniProt Q3UQS8 (peptide sequence: GSPEDGSHEASPLEGK, peptide start residue: 1048)” as the target, how does the log2 fold change read?
**A.** The log2 fold change was -0.781.

**Q.** With “UniProt Q3URE1 (peptide sequence: VTPGFEEK, peptide start residue: 412)” as the target, how does the log2 fold change read?
**A.** The log2 fold change was -0.499.

**Q.** For “UniProt Q3UR97 (peptide sequence: QLQDFWK, peptide start residue: 104)”, which log2 fold change is on record?
**A.** Its log2 fold change is -0.344.

**Q.** With “UniProt Q5DU25 (peptide sequence: DVAQCHLHHENPALGR, peptide start residue: 153)” as the target, how does the log2 fold change read?
**A.** Its log2 fold change is 0.207.

**Q.** “UniProt Q3UKC1 (peptide sequence: QLADTLAELQLHAVKK, peptide start residue: 404)” was tested. Which log2 fold change did it give?
**A.** Its log2 fold change is 0.212.

**Q.** For “UniProt Q3UQU0 (peptide sequence: SIPMRPADEMK, peptide start residue: 463)”, which log2 fold change is on record?
**A.** The log2 fold change was 0.279.

**Q.** For “UniProt Q3UHC2 (peptide sequence: LLVLTHGADPENYAVR, peptide start residue: 171)”, which log2 fold change is on record?
**A.** The log2 fold change was 0.564.

**Q.** How did the log2 fold change turn out when “UniProt Q3UI43 (peptide sequence: LESFNGSR, peptide start residue: 114)” was run?
**A.** The log2 fold change was -0.151.

— the supplement of paper PMC12819154, “High-throughput peptide-centric local stability assay extends protein–ligand identification to membrane proteins, tissues and bacteria” (Nature Structural & Molecular Biology, 2025)
